{
  "source": "patent US4021563A",
  "about": "“Method of treating cardiac arrhythmia with γ-piperidino-butyrophenones” (priority 1975, dated 1977)",
  "origin": "cited, not measured here",
  "system": "cardiac arrhythmia",
  "conditions": "cited from earlier work",
  "data": [
    {"smiles": "CCN(CC)CC(=O)Nc1c(C)cccc1C", "note": "[Lidocaine, lidocaine]", "values": [
      {"measurement": "antiarrhythmic properties / activity of prior art compounds", "result": "activity as antiarrhythmic agents"},
      {"measurement": "toxic effects of prior art antiarrhythmic drugs", "result": "various toxic effects"}
    ]}
  ]
}
